Assay results as given in doi:10.64898/2025.12.09.692982.
No constants are given. Whether binding was seen depends on the method and setting. Binding seen in cells or lysates may run through a third protein. Some binding calls cover weakened binding; strength is not graded here. Sequences can lack the tags named with a protein.

By UniProt entry, the sequences of proteins in these tests, tags left out. Where a name states a change or a piece, a line headed by the entry shows the natural chain unless it says otherwise.
UniProt O00311: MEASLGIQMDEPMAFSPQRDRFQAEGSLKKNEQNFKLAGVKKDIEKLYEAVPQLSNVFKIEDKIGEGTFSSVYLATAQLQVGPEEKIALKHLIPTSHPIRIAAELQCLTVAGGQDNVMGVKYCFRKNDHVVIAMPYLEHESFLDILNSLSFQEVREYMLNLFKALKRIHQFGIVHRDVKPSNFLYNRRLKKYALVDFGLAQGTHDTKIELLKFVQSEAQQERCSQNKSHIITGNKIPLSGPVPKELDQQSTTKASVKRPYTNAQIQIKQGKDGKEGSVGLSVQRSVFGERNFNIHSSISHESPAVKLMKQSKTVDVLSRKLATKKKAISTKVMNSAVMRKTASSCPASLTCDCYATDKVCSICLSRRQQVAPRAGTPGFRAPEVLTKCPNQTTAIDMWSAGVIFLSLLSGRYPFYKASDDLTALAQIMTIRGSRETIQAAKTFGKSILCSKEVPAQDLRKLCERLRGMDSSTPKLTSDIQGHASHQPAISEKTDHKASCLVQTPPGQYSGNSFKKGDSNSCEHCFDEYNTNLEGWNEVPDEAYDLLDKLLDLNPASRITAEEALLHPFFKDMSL
UniProt P49336: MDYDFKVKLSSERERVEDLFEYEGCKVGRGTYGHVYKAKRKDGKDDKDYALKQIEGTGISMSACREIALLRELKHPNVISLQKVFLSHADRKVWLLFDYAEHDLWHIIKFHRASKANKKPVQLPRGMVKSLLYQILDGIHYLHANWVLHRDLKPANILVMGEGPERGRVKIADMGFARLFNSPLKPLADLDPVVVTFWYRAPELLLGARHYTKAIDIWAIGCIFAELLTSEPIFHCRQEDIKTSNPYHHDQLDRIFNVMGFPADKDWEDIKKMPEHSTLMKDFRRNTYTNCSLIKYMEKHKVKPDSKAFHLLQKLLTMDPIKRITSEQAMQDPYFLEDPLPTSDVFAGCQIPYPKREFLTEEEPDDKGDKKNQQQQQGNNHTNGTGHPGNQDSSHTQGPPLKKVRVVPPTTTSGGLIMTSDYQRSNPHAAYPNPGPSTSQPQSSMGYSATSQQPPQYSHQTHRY

Target: T1, MCM3 protein fused to an ALFA-tag (UniProt P25205)
T1 sequence: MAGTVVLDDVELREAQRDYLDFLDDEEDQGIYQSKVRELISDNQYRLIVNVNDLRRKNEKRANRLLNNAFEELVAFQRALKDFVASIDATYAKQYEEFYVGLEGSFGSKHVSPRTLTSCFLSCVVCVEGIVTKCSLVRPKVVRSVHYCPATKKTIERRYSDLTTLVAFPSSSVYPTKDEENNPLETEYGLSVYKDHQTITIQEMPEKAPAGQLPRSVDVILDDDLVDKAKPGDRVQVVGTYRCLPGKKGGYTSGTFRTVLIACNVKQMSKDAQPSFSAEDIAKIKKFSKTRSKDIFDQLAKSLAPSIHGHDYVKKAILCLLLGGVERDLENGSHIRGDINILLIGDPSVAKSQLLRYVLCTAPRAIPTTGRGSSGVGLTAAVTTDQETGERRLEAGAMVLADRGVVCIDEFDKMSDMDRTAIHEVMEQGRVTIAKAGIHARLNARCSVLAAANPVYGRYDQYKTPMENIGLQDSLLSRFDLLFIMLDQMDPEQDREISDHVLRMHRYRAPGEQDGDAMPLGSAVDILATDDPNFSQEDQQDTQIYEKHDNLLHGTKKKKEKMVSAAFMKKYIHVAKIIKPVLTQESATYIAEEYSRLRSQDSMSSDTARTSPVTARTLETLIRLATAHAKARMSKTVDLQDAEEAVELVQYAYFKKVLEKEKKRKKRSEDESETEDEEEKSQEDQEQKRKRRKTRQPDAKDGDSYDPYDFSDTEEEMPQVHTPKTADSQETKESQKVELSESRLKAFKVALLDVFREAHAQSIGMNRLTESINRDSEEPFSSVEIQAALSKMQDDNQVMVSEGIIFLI
Assay: pull-down

Substance	binding
CDC7 (from UniProt O00311 1-574)	binds
CDK8/CCNC kinase (from UniProt P49336 1-464; P24863 1-283) (complex)	binds
